# Library screening results

Chains of the proteins cited; added tags and fusions are not shown.
UniProt E9BF75, entry or part of it: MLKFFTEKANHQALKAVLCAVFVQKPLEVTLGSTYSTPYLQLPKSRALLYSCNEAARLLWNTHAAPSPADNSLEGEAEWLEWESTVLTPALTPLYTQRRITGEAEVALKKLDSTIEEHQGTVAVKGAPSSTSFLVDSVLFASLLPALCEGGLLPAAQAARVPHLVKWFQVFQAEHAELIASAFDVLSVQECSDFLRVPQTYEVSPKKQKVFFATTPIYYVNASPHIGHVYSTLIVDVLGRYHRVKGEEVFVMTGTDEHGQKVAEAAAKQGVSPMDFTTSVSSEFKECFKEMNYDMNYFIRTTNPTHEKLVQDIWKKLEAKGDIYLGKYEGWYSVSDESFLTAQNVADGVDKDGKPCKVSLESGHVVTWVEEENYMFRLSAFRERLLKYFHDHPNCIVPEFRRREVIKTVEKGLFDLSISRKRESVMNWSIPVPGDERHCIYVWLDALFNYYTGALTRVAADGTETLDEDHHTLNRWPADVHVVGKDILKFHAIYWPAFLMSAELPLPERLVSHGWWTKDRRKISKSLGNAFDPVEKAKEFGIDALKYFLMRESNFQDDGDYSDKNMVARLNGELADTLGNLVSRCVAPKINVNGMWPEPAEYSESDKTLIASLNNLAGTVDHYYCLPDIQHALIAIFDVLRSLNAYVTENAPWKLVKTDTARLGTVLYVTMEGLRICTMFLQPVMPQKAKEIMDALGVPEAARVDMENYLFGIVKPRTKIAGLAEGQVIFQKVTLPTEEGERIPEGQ

All values are in %. How 0% and 100% were set is not recorded. Most values in the screen are low, and negative values occur. This is an unselected part of the compounds tested.

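Primary screen of methionyl-tRNA synthetase; the read-out is not stated. Target: Methionyl-tRNA synthetase (putative), Leishmania donovani (UniProt E9BF75). The test concentration is not given. The values are filed as inhibition. About 68,000 compounds were tested under these conditions; 0.035% (about 24) showed 50% or more at least once.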

{"structure": "c1ccc(NCc2cn3c(n2)CNCC3)nc1", "Inhibition": 15.31}
{"structure": "CCOc1ccc(Cl)c(C(=O)NCCc2ncc[nH]2)n1", "Inhibition": 21.2}
{"structure": "c1cnc(N2CCCC(c3cc4cccnc4[nH]3)C2)nc1", "stereo": "stereo not drawn", "Inhibition": 15.48}
{"structure": "CC(C)(C)c1cn(C2CCN(C3CCSC3)CC2)nn1", "stereo": "stereo not drawn", "Inhibition": 5.602}
{"structure": "CC(NC(=O)CCn1cccn1)c1ccc(-n2ccnn2)cc1", "stereo": "stereo not drawn", "Inhibition": 1.044}
{"structure": "COC(=O)CNC(=O)c1sccc1N(C)S(=O)(=O)c1ccc(Cl)cc1", "Inhibition": 5.519}
{"structure": "O=C(COCC(F)(F)F)NS(=O)(=O)c1ccc2c(c1)OCCCO2", "Inhibition": 7.429}
{"structure": "NCc1cc(NCC(c2ccccn2)N2CCOCC2)ncn1", "stereo": "stereo not drawn", "Inhibition": 12.81}
{"structure": "Cc1cc(-c2cnc(N3CCNC(=O)C3)nc2-c2sccc2C)on1", "Inhibition": 2.589}
{"structure": "O=C([C@H]1C[C@@H]2CCN(c3cccc(F)c3)C[C@H]2O1)N1CCCC1", "Inhibition": 6.849}
{"structure": "CC(C)n1c(=O)c2ccccc2n(CCN2CCCCC2)c1=O", "Inhibition": 13.87}
{"structure": "CCC(=O)NC1CCCN(C(=O)Nc2cc(-c3ccccc3)on2)C1", "stereo": "stereo not drawn", "Inhibition": 13.23}
{"structure": "CCC[C@@H]1CN(S(=O)(=O)c2ccc(C)c(F)c2)C[C@H]1N(C)C", "Inhibition": 12.68}
{"structure": "Cc1cc2c(=O)n3c(nc2s1)CCN(C(=O)c1nn(C)cc1Cl)CC3", "Inhibition": 16.13}
{"structure": "COc1ccc(CN2CCOC[C@H]2c2nc(-c3ccncc3)c[nH]2)cc1", "Inhibition": 9.023}
{"structure": "Cc1ccc(C(C(=O)NCc2n[nH]c(N)n2)N(C)C)cc1", "stereo": "stereo not drawn", "Inhibition": 21.14}
{"structure": "NCC1CCN(c2nc(C3CCCC3)nc3c2CCNCC3)C1", "stereo": "stereo not drawn", "Inhibition": -7.343}
{"structure": "CC(C)NC(=O)N1CCN(c2ccc(Cl)nn2)C(=O)C1", "Inhibition": 9.714}
{"structure": "Cc1nn(C)c(C)c1CC(=O)N1CCc2nnc(N(C)C)cc2C1", "Inhibition": 13.22}
{"structure": "CC(=O)N1CCN(C(=O)NCc2csc(Br)c2)CC1", "Inhibition": 10.48}
{"structure": "O=C1CN([C@@H]2CC[C@@H](NS(=O)(=O)c3ccccc3F)[C@H]2O)CCN1", "Inhibition": 5.814}
{"structure": "CNC(=O)C1CCCCN1C(=O)CCn1cnc2sccc2c1=O", "stereo": "stereo not drawn", "Inhibition": 13.61}
{"structure": "Cc1cc(S(C)(=O)=O)c(C)c(S(=O)(=O)N2CCCC(C)C2)c1", "stereo": "stereo not drawn", "Inhibition": 13.6}
{"structure": "CCC[C@@H]1CN(C(=O)c2cc3ccccc3cc2O)C[C@H]1N(C)C", "Inhibition": 11.45}
{"structure": "Cn1cccc1C(=O)N1C[C@@H]2CCCO[C@@H]2[C@H](N2CCOCC2)C1", "Inhibition": 14.19}
{"structure": "CCCn1cc(S(=O)(=O)N[C@H]2CN(CCO)C[C@@H]2C2CC2)cn1", "Inhibition": 6.859}
{"structure": "O=C(Nc1cccc(CN2CCOC2=O)c1)N1CCOCC1", "Inhibition": 17.7}
{"structure": "COc1cc(F)ccc1NC(=O)NC(C)C(=O)NC(C)(C)C", "stereo": "stereo not drawn", "Inhibition": 6.383}
{"structure": "COCc1ncc(CN(Cc2ccco2)C(C)C(C)C)cn1", "stereo": "stereo not drawn", "Inhibition": 18.31}
{"structure": "COc1c(C2CCCN2C(=O)c2c(C)noc2C(C)C)c(C)nn1C", "stereo": "stereo not drawn", "Inhibition": 8.169}
{"structure": "CCn1c(C)nnc1SCCNC(=O)c1cnc(C(C)(C)C)nc1O", "Inhibition": 16.32}
{"structure": "CCCS(=O)(=O)N1CC[C@H]2O[C@@H](c3nc(C)no3)CC[C@H]21", "Inhibition": 18.16}
{"structure": "COCCN(C)C[C@@H]1CN(C(=O)NC2CCCCC2)C[C@@H]1CO", "Inhibition": 13.56}

For reference, 2 entries once more:

Result for NCc1cc(NCC(c2ccccn2)N2CCOCC2)ncn1 (stereo not drawn) was 12.81%.
Result for CC(C)(C)c1cn(C2CCN(C3CCSC3)CC2)nn1 (stereo not drawn) was 5.602%.

Data taken from ChEMBL document CHEMBL3988442, “University of Dundee, Small-Polar-MMV Screening Library” (2021).